Consider 30 sequences from PubChem BioAssay AID1508600 (Functional Genomics Laboratory (NCATS/FGL), 2020).

Screen size: about 53,000 sequences; about 3,700 (7%) were called active.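 How the source made its calls: active means gene knockdowns whose robust z-score for IL-1 alpha signal is at least 2 or at most -2, so actives lie on both sides; inactive means the rest.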 The list shows a part of the results.

A short description of this test: Components of the Cytosolic LPS Sensing Pathway: Gene Identification via Genome-wide siRNA Screen.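 Further: robust z of the log signal after scaling to non-targeting control siRNA wells of the plate.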 The note with it: RAW264.7 macrophages, IL-1a HTRF, actives lie on both sides, screened at 100 nM (by protocol), cells primed 5 h with Pam3CSK4 first. An outline of the steps: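 Knockdown: 100 nM siRNA, 48h, RAW264.7. Stimulation: Pam3CSK4 5 h, then LipidA via TransIT-TKO 24 h. Output: supernatant IL-1a HTRF, negative-control-normalized, log robust z-score; viability by CellTiter-Glo.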
For orientation: Time-resolved FRET reads energy transfer from a long-lived donor to a nearby acceptor.
In the case of GGAUUUUUGCCUCUAACUUTT against Bysl, the z-score is inactive: 0.604.
The result for GGACUUUGAGGAGAAGGAUTT against Rabep2 reads inactive: -1.34; that for GCGAAUUUUUGACACCUAUTT against Elmod2, inactive: 0.888; that for GCCAAAUUUUGGGAUGUAATT against Dtl, inactive: 1.6.
To GGCUCUAGGACCAAAAUUUTT against Hsd3b2 belongs inactive: -0.0259.
To GGAUCACAGAAUAGAACAATT against Hpgds belongs inactive: 0.237; to GGAACCUACUUGUUACCUUTT against Nlrp5, inactive: 0.731.
On to GCGACUUAGAAAAGAACAGTT against Ccdc58, for which the z-score is inactive: 1.91.
For the sequence CGAGUUCCCUAUCAAUCUCTT against Flrt1, the z-score is inactive: -1.95.
The result for GUUUCUGGGUGAGCGCGAUTT against Fzd2 reads active: 2.29; that for GGAGCUAGAGUGCUCAAGATT against Ceacam14, inactive: -1.5; that for GGCAGACCCAUAAUUAAUCTT against Arsk, inactive: -0.567.
To GCCAGAAGUCCGAUACUACTT against Plk2 belongs inactive: -0.12; to GAAUGCUAUUAGGAAACUGTT against Olfr1226, inactive: 0.306.
The result for UUUUGCUGAAUGGUAUGUATT against Cpsf6 reads inactive: -0.304.
On to GGCUUACCAAUGUGAAUGGTT against Trpv5, for which the z-score was inactive: -0.708.
With GGAAUCUUUAGACCAUCUCTT against Myh1, the z-score is active: 5.3.
To GGACAUGUACAGACCUCACTT against Cacng5 belongs inactive: 0.225.
The result for GGCCAAGGAAAGUAUGAAUTT against Sox7 reads inactive: 0.285; that for GGCAAGGAUUUGUGUUUGCTT against Tmem115, inactive: -0.169.
GGACAUUGUCCUGAAUGGCTT against Hsd3b3: the z-score is inactive: -0.924.
In the case of GCCUUAGGAAAUUCUCAAUTT against Rbm12b2, the z-score was inactive: 0.334.
As for GGAACUAGAAGAAAUGUUATT against Mrps9, the z-score is inactive: 0.768.
The result for GGAAGAGCAACAUGUUUAATT against Zfp710 reads inactive: -0.543.
In the case of GGAGAAUCAUGGACAGCUGTT against Olfr2, the z-score was inactive: -0.189.
To GGUUCUUUCAGAAAAUGGATT against Kcnip3 belongs inactive: 0.88.
The result for GGAAAAAGGCACGAAAUGATT against Ppa2 reads inactive: -1.74; that for GGUCACCCAUGUACUUCUUTT against Olfr1189, inactive: 0.404.
Regarding GGCAGAGCUCAAAAAGAAATT against Ankrd1, the z-score was inactive: -1.94.
The result for GCCGGUGACUUUCUAAUUUTT against Yrdc reads inactive: -1.32.
